{"source": "the supplement of paper PMC9015667", "note": "Counter-ions that a name gives are not always drawn. The list shows a part of the results. Many values rest on one well or one pass, so single values are uncertain."}
{"tested_on": "M249P (parental melanoma line)", "experiment": "reduction in cell viability relative to untreated/vehicle; higher = more growth inhibition", "settings": "200 nM; 72 h", "units": {"reduction in cell viability": "%"}}
{"smiles": "C=C1C[C@@]2(O)O[C@@]3(C[C@H]2C(C)C)[C@@H](C)CC[C@@H]13", "note": "[Curcumol]", "reduction in cell viability": "< 0"}
{"smiles": "Cc1ccc(-c2ncn(-c3ccc(Nc4nccc(-c5cccc(N6CCOCC6)c5)n4)cc3)n2)cn1", "reduction in cell viability": "< 0"}
{"smiles": "CN1CCC(=C2c3ccccc3CC(=O)c3sccc32)CC1", "note": "[Ketotifen]", "reduction in cell viability": "< 0"}
{"smiles": "CCCCOc1ccc(C(=O)Nc2ccc(F)cc2F)cc1", "reduction in cell viability": "< 0"}
{"smiles": "CCCCCCCCCCC[C@@H](C[C@@H]1OC(=O)[C@H]1CCCCCC)OC(=O)[C@H](CC(C)C)NC=O", "note": "[Orlistat]", "reduction in cell viability": "< 0"}
{"smiles": "CC1=C[C@@H]2[C@H]([C@@H](O)C[C@@]3(C)[C@H]2C[C@@H](C)[C@]3(O)C(=O)CO)[C@@]2(C)Cc3cnn(-c4ccccc4)c3C=C12", "note": "[Deacetyl cortivazol]", "reduction in cell viability": "< 0"}
{"smiles": "COC(=O)Nc1nc2cc(C(=O)c3ccc(F)cc3)ccc2[nH]1", "note": "[Flubendazole]", "reduction in cell viability": "< 0"}
{"tested_on": "M249R (matched melanoma line resistant to BRAF inhibitors)", "experiment": "reduction in cell viability relative to untreated/vehicle; higher = more growth inhibition", "settings": "200 nM; 72 h", "units": {"reduction in cell viability": "%"}}
{"smiles": "CC(C)[C@H](C(=O)Nc1ccc(C(=O)NO)cc1)c1ccccc1", "reduction in cell viability": 36.5}
{"smiles": "Cc1cn[nH]c1", "note": "[Fomepizole]", "reduction in cell viability": "< 0"}
{"smiles": "CC(C)NCC(O)c1ccc(O)c(O)c1", "note": "(centres undefined) [Isoproterenol]", "reduction in cell viability": "< 0"}
{"smiles": "Cc1ccc(NC(=O)C2(c3ccc4c(c3)OC(F)(F)O4)CC2)nc1-c1cccc(C(=O)O)c1", "note": "[Lumacaftor]", "reduction in cell viability": "< 0"}
{"smiles": "CCOc1cc(N2CCC(O)CC2)ccc1Nc1ncc2c(n1)N(C)c1ccccc1C(=O)N2C", "reduction in cell viability": 2.16}
{"smiles": "Clc1ccc(CCC(Cn2ccnc2)Sc2c(Cl)cccc2Cl)cc1", "note": "(centres undefined) [Butoconazole nitrate]", "reduction in cell viability": "< 0"}
{"smiles": "COc1ccc(C2CC(c3ccccc3)=NN2c2ccc(S(N)(=O)=O)cc2)cc1", "note": "(centres undefined)", "reduction in cell viability": "< 0"}
{"smiles": "O=c1[nH]nc(OCCCc2ccc(Cl)cc2)c(NCc2cccnc2)c1Br", "note": "[Parogrelil]", "reduction in cell viability": "< 0"}
{"smiles": "COc1cc(N2CCC(N3CCN(C)CC3)CC2)ccc1Nc1ncnc(Nc2ccccc2S(=O)(=O)C(C)C)n1", "reduction in cell viability": "< 0"}
{"smiles": "C[C@H](NCc1ccc2c(c1)nc(NC(=O)c1ccc(-c3cn[nH]c3)s1)n2CCc1ccccc1)C(C)(C)C", "reduction in cell viability": 93.4}
{"smiles": "Nc1nc(OCc2ccccc2)c2nc[nH]c2n1", "note": "[O6-Benzylguanine]", "reduction in cell viability": "< 0"}
{"smiles": "CC1(C)OC2=C(C(=O)c3ccccc3C2=O)[C@H](NCc2ccccc2)[C@@H]1O", "reduction in cell viability": "< 0"}
{"smiles": "CCC(=O)O[C@]1(C(=O)CO)CC[C@H]2[C@@H]3CCC4=CC(=O)CC[C@]4(C)[C@H]3CC[C@@]21C", "note": "[17 alpha-propionate]", "reduction in cell viability": "< 0"}
{"smiles": "C=CC(=O)Nc1cccc(Oc2nc(Nc3ccc(N4CCN(C)CC4)cc3OC)ncc2Cl)c1", "reduction in cell viability": "< 0"}
{"smiles": "Cc1[nH]c2ccccc2c1CCNCc1ccc(/C=C/C(=O)NO)cc1", "note": "[Panobinostat (LBH589)]", "reduction in cell viability": 95.4}
{"smiles": "Cc1c(-c2cccc3c(CCCOc4cccc5ccccc45)c(C(=O)O)n(Cc4cccnc4)c23)c(COc2ccc(N3CCN([S+](=O)([O-])N(C)C)CC3)cc2)nn1C", "reduction in cell viability": "< 0"}
{"smiles": "O=C(NCc1ccccc1)c1csc(Nc2ccncn2)n1", "note": "[Thiazovivin]", "reduction in cell viability": "< 0"}
{"smiles": "CNc1nc(Nc2ccc(C(=O)N3CCOCC3)cc2OC)ncc1Cl", "reduction in cell viability": "< 0"}
{"smiles": "O=C(CCCCCCC(=O)Nc1ccc([C@H]2O[C@@H](CSc3nc(-c4ccccc4)c(-c4ccccc4)o3)C[C@@H](c3ccc(CO)cc3)O2)cc1)NO", "note": "[Tubacin]", "reduction in cell viability": 7.31}
{"smiles": "CC1(C)CCC[C@]2(C)[C@H]3CC(=O)O[C@]3(C)CC[C@@H]12", "note": "[Sclareolide]", "reduction in cell viability": "< 0"}
{"smiles": "N#Cc1c(O)c2c(-c3ccc(-c4ccccc4O)cc3)csc2[nH]c1=O", "reduction in cell viability": "< 0"}
{"smiles": "O=c1[nH]c(=O)n([C@H]2C[C@H](O)[C@@H](CO)O2)cc1F", "note": "[Floxuridine]", "reduction in cell viability": "< 0"}
{"smiles": "CN(C)CCN(Cc1ccc(Cl)cc1)c1ccccn1", "note": "[Chloropyramine hydrochloride]", "reduction in cell viability": 2.3}
{"smiles": "N#Cc1c(C2CCNCC2)cc(-c2c(O)cccc2OCC2CC2)nc1N", "note": "[IKK-2 Inhibitor VIII]", "reduction in cell viability": "< 0"}
{"smiles": "CN1CCN(c2ncc(-c3cc(Cl)cc(Cl)c3Cl)c(N)n2)CC1", "note": "[Sipatrigine]", "reduction in cell viability": "< 0"}
{"smiles": "CC(=O)N1CCN(c2ccc(OCc3nn(C)c(C)c3-c3cccc4c(CCCOc5cc(C)c(Cl)c(C)c5)c(C(=O)O)n(Cc5cccnc5)c34)cc2)CC1", "reduction in cell viability": "< 0"}
{"smiles": "CCC1=C[C@@H]2CN(C1)Cc1c([nH]c3ccccc13)[C@@](C(=O)OC)(c1cc3c(cc1OC)N(C)[C@H]1[C@@](O)(C(=O)OC)[C@H](OC(C)=O)[C@]4(CC)C=CCN5CC[C@]31[C@@H]54)C2", "note": "[Vinorelbine tartrate]", "reduction in cell viability": 50.6}
